# Assay results

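Plate-reader measure of the Venus reporter marking one vaccinia stage in infected cells (the cell line is not named here); read time unknown.
The test concentration is not given here.
Percent change in Venus reporter signal; lower (more negative) values mean stronger inhibition of that viral stage.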

Values are in %.
How 0% and 100% were set is not given here.
Common to all entries: measured here: Venus reporter, other viral stage.
This is a side read-out of the assay, for part of the compounds, not drawn at random.

| SMILES | activity change (Venus) (%) |
|---|---|
| `C[C@H]1CCCCO[C@@H](CN(C)Cc2ccc(C(F)(F)F)cc2)[C@@H](C)CN([C@@H](C)CO)C(=O)c2cc(NC(=O)CCC(F)(F)F)ccc2O1` | -59.66 |
| `C[C@H](CO)N1C[C@H](C)[C@H](CN(C)Cc2ccc(-c3ccccc3)cc2)Oc2c(NS(=O)(=O)c3ccc(F)cc3)cccc2C1=O` | -41.58 |
| `C[C@@H]1CN([C@@H](C)CO)C(=O)c2cc(NC(=O)Nc3ccc(C(F)(F)F)cc3)ccc2O[C@@H]1CN(C)Cc1ccc(Cl)c(Cl)c1` | -42 |
| `C[C@@H]1CN([C@@H](C)CO)C(=O)c2cc(NC(=O)Nc3ccccc3)ccc2O[C@@H]1CN(C)Cc1ccc(C(F)(F)F)cc1` | -28.99 |
| `O=C(C[C@@H]1CC[C@@H]2[C@H](COC[C@H](O)CN2C(=O)Nc2cc(Cl)cc(Cl)c2)O1)NCC1CCCCC1` | -25.84 |
| `O=C(CN1CCOCC1)N1CCCCN2[C@@H](CO)[C@@H](c3ccc(/C=C/c4ccccc4)cc3)[C@@H]2C1` | -44.77 |
| `Cc1noc(C)c1S(=O)(=O)N(C)C[C@H]1OCCCC[C@@H](C)Oc2ccc(NS(=O)(=O)c3cccs3)cc2C(=O)N([C@@H](C)CO)C[C@H]1C` | -45.59 |
| `C[C@H](CO)N1C[C@H](C)[C@H](CN(C)S(=O)(=O)c2ccc(Cl)cc2)OCCCC[C@H](C)Oc2ccc(NC(=O)C3CCCCC3)cc2C1=O` | -21.71 |
| `COc1ccc(NC(=O)N(C)C[C@H]2Oc3cc(C#CCC(C)C)ccc3S(=O)(=O)N([C@H](C)CO)C[C@@H]2C)cc1` | -44.83 |
| `CC(C)NC(=O)N1CC[C@@H]2[C@@H](CO)N(C)c3ccc(-c4ccc(F)cc4)cc3[C@@H]21` | -35.61 |
| `O=C(C[C@@H]1C[C@@H]2c3cc(NS(=O)(=O)c4ccc(F)cc4)ccc3O[C@@H]2[C@@H](CO)O1)NCc1ccc(-c2ccccc2)cc1` | -40.53 |
| `C[C@@H]1CCCCO[C@@H](CN(C)Cc2ccc(C(F)(F)F)cc2)[C@H](C)CN([C@@H](C)CO)C(=O)c2cc(NS(=O)(=O)c3cccs3)ccc2O1` | -81.14 |
| `O=C(Nc1ccccc1)N1C[C@@H]2N[C@H](C1)C2c1ccc(-c2cccnc2)cc1` (some centres unmarked) | -84.13 |
| `O=C(Cc1cccnc1)N1CC(=O)N2[C@H](C1)[C@H](c1ccc(/C=C/c3ccccc3)cc1)[C@@H]2CO` | -63.03 |
| `O=C(C[C@@H]1CC[C@@H]2[C@H](COC[C@H](O)CN2Cc2ccc(Cl)cc2)O1)NCc1ccccc1Cl` | -36.12 |
| `C[C@H](CO)N1C[C@H](C)[C@@H](CN(C)Cc2ccc(Cl)c(Cl)c2)OCCCC[C@H](C)Oc2ccc(NS(=O)(=O)c3ccccc3)cc2C1=O` | -80.79 |
| `C[C@H](O)C#Cc1cnc2c(c1)C(=O)N([C@@H](C)CO)C[C@@H](C)[C@H](CN(C)Cc1ccc(-c3ccccc3)cc1)O2` | -60.11 |
| `CC(C)CC#Cc1ccc2c(c1)O[C@H](CN(C)C(=O)Cc1ccccc1)[C@H](C)CN([C@@H](C)CO)S2(=O)=O` | -51.51 |
| `C[C@@H]1CN([C@H](C)CO)C(=O)c2c(c3ccccc3n2C)-c2ccccc2CO[C@H]1CN(C)Cc1cccc2c1OCCCO2` | -60.84 |
| `COc1ccc(-c2ccc([C@H]3[C@H]4CN(C(=O)C5CCCC5)CC(=O)N4[C@H]3CO)cc2)cc1` | -41.32 |
| `N#C[C@@H]1[C@@H](c2ccc(-c3cccc(F)c3)cc2)[C@@H](CO)N1C(=O)NC1CCCCC1` | -49.14 |
| `Cc1ccc(-c2cnc3c(c2)C(=O)N([C@@H](C)CO)C[C@@H](C)[C@@H](CN(C)CC2CCOCC2)O3)cc1` | -25.71 |
| `C[C@H](CO)N1C[C@H](C)[C@H](CN(C)C(=O)Nc2ccc(C(F)(F)F)cc2)OCCCC[C@H](C)Oc2ccc(NC(=O)c3ccncc3)cc2C1=O` | -33.99 |
| `N#C[C@@H]1[C@@H](c2ccccc2C2=CCCC2)[C@H](CO)N1C(=O)NC1CCCCC1` | -41.16 |
| `O=C1CN(S(=O)(=O)c2ccccc2)C[C@H]2[C@@H](c3ccc(C#Cc4ccccc4)cc3)[C@@H](CO)N12` | -43.85 |
| `C[C@@H]1CN([C@@H](C)CO)C(=O)c2cc(C#CC3CCCC3)cnc2O[C@@H]1CN(C)C(=O)Nc1ccccc1` | -31.09 |
| `O=C(C1CCC1)N1C[C@@H]2N[C@H](C1)C2c1ccc(-c2cccc(F)c2)cc1` (some centres unmarked) | -78.09 |
| `Cc1ccc(S(=O)(=O)N(C)C[C@H]2Oc3cc(Br)ccc3S(=O)(=O)N([C@H](C)CO)C[C@H]2C)cc1` | -30.95 |
| `OC[C@@H]1[C@H](c2ccc(-c3ccc(F)cc3)cc2)[C@@H]2CN(CCC(F)(F)F)CCCCN12` | -55.49 |
| `C[C@@H]1CN([C@@H](C)CO)C(=O)c2cc(NC(=O)Nc3ccc(C(F)(F)F)cc3)ccc2O[C@H]1CN(C)Cc1ccc2c(c1)OCO2` | -32.69 |
| `C[C@@H]1CN([C@@H](C)CO)C(=O)Cc2cc(NC(=O)Cc3ccccc3)ccc2O[C@H]1CN(C)CC1CCCCC1` | -59.24 |
| `COc1ccc2c3c(n(C)c2c1)[C@H](CO)N(Cc1ccccc1)CC31CCN(CC2CC2)CC1` | -38.42 |
| `CCO[C@@H]1OC(C(=O)N2CCN(Cc3ccc4c(c3)OCO4)CC2)=C[C@H](C2CCCCC2)[C@H]1CCCO` | -36.41 |
| `C[C@H]1CCCCO[C@@H](CN(C)CC2CCCCC2)[C@@H](C)CN([C@@H](C)CO)C(=O)c2cc(NC(=O)Nc3ccc(F)cc3)ccc2O1` | -70.04 |
| `CC(C)NC(=O)N(C)C[C@@H]1Oc2cc(C#Cc3cccc(F)c3)ccc2S(=O)(=O)N([C@@H](C)CO)C[C@@H]1C` | -51.61 |
| `CN1c2ccc(-c3cccc(C#N)c3)cc2[C@H]2[C@H](CCN2C(=O)C2CCCC2)[C@H]1CO` | -36.75 |
| `O=C(C1CCCC1)N1CCCCN2[C@H](CO)[C@H](c3ccc(-c4cccc(F)c4)cc3)[C@@H]2C1` | -43.76 |
| `Cc1ccc(-c2ccc3c(c2)O[C@@H](CN(C)C(=O)Nc2ccc(F)cc2)[C@@H](C)CN([C@H](C)CO)S3(=O)=O)cc1` | -42.21 |
| `CC(C)CC#Cc1ccc([C@@H]2[C@H]3CN(C(=O)NC4CCCC4)CC(=O)N3[C@H]2CO)cc1` | -38.63 |
| `C[C@H](CO)N1C[C@H](C)[C@H](CN(C)Cc2ccc(Oc3ccccc3)cc2)Oc2ccc(NC(=O)Cc3ccccc3)cc2CC1=O` | -36.46 |
| `C[C@H](CO)N1C[C@H](C)[C@H](CN(C)S(=O)(=O)c2ccc(Cl)cc2)Oc2c(NC(=O)Nc3ccc(F)cc3)cccc2C1=O` | -62.36 |
| `CO[C@H](CN(C)S(=O)(=O)c1cccc(Cl)c1)[C@@H](C)CN([C@@H](C)CO)S(=O)(=O)c1ccc(Cl)cc1` | -25.71 |
| `CN1C(=O)c2cc(NC(=O)c3cccc(F)c3)ccc2OC[C@H]2O[C@H](CC(=O)NCC3CCCCC3)CC[C@@H]21` | -28.36 |
| `Cc1ccc(S(=O)(=O)Nc2ccc3c(c2)C(=O)N([C@H](C)CO)C[C@@H](C)[C@@H](CN(C)CC2CCCCC2)OCCCC[C@H](C)O3)cc1` | -48.28 |
| `COc1ccc(S(=O)(=O)N(C)C[C@H]2Oc3cc(C#CC4CC4)ccc3S(=O)(=O)N([C@H](C)CO)C[C@@H]2C)cc1` | -47.95 |
| `C[C@H](CO)N1C[C@H](C)[C@@H](CN(C)Cc2ccc3c(c2)OCO3)OCCCC[C@H](C)Oc2ccc(NC(=O)NC3CCCCC3)cc2C1=O` | -29.14 |
| `COc1ccc(C#Cc2ccc3c(c2)O[C@@H](CN(C)C)[C@@H](C)CN([C@@H](C)CO)S3(=O)=O)cc1` | -60.33 |
| `COc1ccc(NC(=O)Nc2ccc3c(c2)C(=O)N([C@@H](C)CO)C[C@H](C)[C@@H](CN(C)Cc2ccccc2)OCCCC[C@H](C)O3)cc1` | -88.28 |
| `C[C@@H]1CN([C@@H](C)CO)C(=O)c2cccc(NS(=O)(=O)c3ccc(Cl)cc3)c2O[C@@H]1CN(C)Cc1ccc(C(=O)Nc2ccccc2N)cc1` | -23.17 |
| `CO[C@H]1CN(C)C(=O)c2ccc(NC(=O)c3cccc(Oc4ccccc4)c3)cc2OC[C@@H](C)NC[C@@H]1C` | -72.57 |
| `C[C@@H]1CCCCO[C@@H](CN(C)CC2CCCCC2)[C@H](C)CN([C@@H](C)CO)C(=O)c2cc(NS(=O)(=O)c3ccc(F)cc3)ccc2O1` | -38.28 |
| `C[C@@H]1CCCCO[C@@H](CN(C)C(=O)C2CCCCC2)[C@H](C)CN([C@H](C)CO)C(=O)c2cc(NS(=O)(=O)c3ccccc3)ccc2O1` | -39 |
| `COc1ccc(C#Cc2ccc3c(c2)O[C@@H](CN(C)C(=O)c2ccccn2)[C@H](C)CN([C@@H](C)CO)S3(=O)=O)cc1` | -50.63 |
| `Cc1noc(C)c1S(=O)(=O)N(C)C[C@H]1OCCCC[C@H](C)Oc2ccc(NS(=O)(=O)c3ccc(Cl)cc3)cc2C(=O)N([C@@H](C)CO)C[C@@H]1C` | -39.65 |

Some entries from above, unchanged:

| SMILES | activity change (Venus) (%) |
|---|---|
| `CC(C)NC(=O)N(C)C[C@@H]1Oc2cc(C#Cc3cccc(F)c3)ccc2S(=O)(=O)N([C@@H](C)CO)C[C@@H]1C` | -51.61 |
| `Cc1noc(C)c1S(=O)(=O)N(C)C[C@H]1OCCCC[C@H](C)Oc2ccc(NS(=O)(=O)c3ccc(Cl)cc3)cc2C(=O)N([C@@H](C)CO)C[C@@H]1C` | -39.65 |
| `COc1ccc2c3c(n(C)c2c1)[C@H](CO)N(Cc1ccccc1)CC31CCN(CC2CC2)CC1` | -38.42 |
| `C[C@@H]1CN([C@@H](C)CO)C(=O)Cc2cc(NC(=O)Cc3ccccc3)ccc2O[C@H]1CN(C)CC1CCCCC1` | -59.24 |
| `C[C@@H]1CCCCO[C@@H](CN(C)CC2CCCCC2)[C@H](C)CN([C@@H](C)CO)C(=O)c2cc(NS(=O)(=O)c3ccc(F)cc3)ccc2O1` | -38.28 |
| `C[C@H](CO)N1C[C@H](C)[C@@H](CN(C)Cc2ccc3c(c2)OCO3)OCCCC[C@H](C)Oc2ccc(NC(=O)NC3CCCCC3)cc2C1=O` | -29.14 |

Source: PubChem BioAssay AID1053133 (Broad Institute, 2014).